Measured values: the supplement of paper PMC3334620
Over roughly 33,000 sequences, “E-score (-0.5 to 0.5)” has its median near -0.015; the highest 2% begin near 0.3. This is one part of the list.

Each sequence was assayed against T1, Abf1 (UniProt P14164) (assay: PBM E-score (8-mer binding enrichment) (E-score (-0.5 to 0.5)); higher = stronger / more preferred TF binding). Conditions: protein concentration: 200 nM; construct: GST-full length.
T1 sequence: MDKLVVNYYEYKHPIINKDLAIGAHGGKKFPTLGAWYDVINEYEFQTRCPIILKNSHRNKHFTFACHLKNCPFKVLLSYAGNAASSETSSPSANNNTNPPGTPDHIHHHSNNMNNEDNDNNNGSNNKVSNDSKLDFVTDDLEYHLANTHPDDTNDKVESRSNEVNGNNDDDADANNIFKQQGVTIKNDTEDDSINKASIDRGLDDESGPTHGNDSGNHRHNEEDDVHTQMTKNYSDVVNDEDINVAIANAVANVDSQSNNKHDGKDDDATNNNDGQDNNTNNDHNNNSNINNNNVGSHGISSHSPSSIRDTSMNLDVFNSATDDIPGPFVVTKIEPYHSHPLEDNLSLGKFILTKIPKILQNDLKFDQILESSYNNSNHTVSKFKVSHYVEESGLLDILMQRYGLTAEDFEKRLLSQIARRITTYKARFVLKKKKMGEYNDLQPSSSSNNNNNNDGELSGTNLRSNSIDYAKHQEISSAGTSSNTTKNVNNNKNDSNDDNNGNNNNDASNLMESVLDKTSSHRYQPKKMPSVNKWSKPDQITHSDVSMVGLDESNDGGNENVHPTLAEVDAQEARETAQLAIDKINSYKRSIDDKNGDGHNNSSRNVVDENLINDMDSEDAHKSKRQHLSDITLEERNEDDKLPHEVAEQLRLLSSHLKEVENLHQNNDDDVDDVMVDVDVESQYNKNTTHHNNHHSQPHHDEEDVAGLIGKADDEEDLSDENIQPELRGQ
Protocol: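 Universal 'all 10-mer' protein binding microarrays (Agilent AMADID 015681) probed with GST-tagged S. cerevisiae TFs (full-length or DBD) made by in vitro transcription/translation (PURExpress), about 100-200 nM. Bound TF was detected with fluorescent anti-GST. Each ungapped 8-mer (which stands for itself and its reverse complement) is scored by the PBM enrichment score (E-score), a modified Wilcoxon-Mann-Whitney statistic from -0.5 to +0.5, computed with the Universal PBM Analysis Suite. Scale: above 0.35 generally sequence-specific binding.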

Sequence	PBM E-score
AATACTTA	0.217
GTAAGCAA	0.0905
ACATTAGT	-0.163
CCGCAGTA	-0.128
CTGACATC	-0.0102
ATTTCAGC	-0.0147
TAATTCGA	0.0406
ATACTTAA	0.219
CTTTTGGC	0.00509
AATGCAAC	0.0165
CAGTTTAA	-0.0202
ACCTGGGA	0.00969
GAGGTACC	-0.109
AAGTGGTC	-0.131
CTGCCATC	-0.154
CGACACCC	0.0181
AGAAGTAA	0.0849
ATTCTGTA	0.14
ACCCGCTA	-0.184
AAATTATG	0.226
CGCATCTA	0.0129
CATGTCCC	-0.0216
GATCAGCC	-0.167
TGCAATAA	0.0784
CCGTTAAG	0.188

Sequence	PBM E-score
CGGTAGAA	-0.103
ATTGACGG	0.211
CGGATTGA	0.101
AACGTGAC	0.0896
AGCGGATC	-0.169
AGTTTGGG	-0.236
AATCAGTG	-0.0316
AATGATGC	0.196
AGCAAAAC	0.0483
GGTCCACC	-0.0604
AGCAACAC	-0.0691
CAGGGTAG	-0.0412
AGTCTACG	0.0566
GTCCAGAC	-0.164
AGCTATCA	0.144
GTAGGGTA	0.0591
ACTCCCGA	-0.0354
AACGGTAA	0.0165
GAAAGAAA	0.215
GCTACTGA	-0.031
CCTGCAAA	-0.134
CAGTGACC	0.132
CCGGGCTA	-0.222
CTAGTCAC	0.133
GTAAGCAC	-0.102

Sequence	PBM E-score
TACAAGAA	0.0257
AACTACCC	-0.109
ATACGTGC	-0.17
CACAGGTG	-0.0741
CTGCCCAA	-0.158
GTTGACAA	0.16
AGATTTAA	0.131
AAGGTAGA	-0.117
CGTCCCAC	0.0413
AATCGTAG	0.197
CTAAGGCA	-0.0416
ACACGCGC	0.00628
CCGCACAA	-0.205
AAAGAATT	0.0713
ATGCACCG	0.0676
CTCGAATA	-0.0536
GAGTTGCA	-0.22
CAATAGCC	-0.0912
CTAGGAGC	-0.198
AATCGACT	-0.0845
GATTCATA	0.1
CAAAGAGG	-0.0721
GACACGAC	0.169
CCTAGCAA	-0.141
CCTCGCTC	0.135

Sequence	PBM E-score
TGGTTCAA	0.0256
ACGTGACT	0.174
AGCTGTAG	-0.272
ATGTGGGG	-0.303
CGACCGCA	0.0407
AAGATGAT	0.304
AATGACTA	0.222
GAGGTGGC	-0.18
ACTATAAG	0.0261
ACATTGGT	0.00762
GCCCCCAA	-0.397
GGTAGAAC	-0.00934
TGGATTAA	-0.0745
AATTTACC	-0.137
GTGCTAAC	0.0573
CGCTGACA	0.0943
GGCTTGCA	-0.0401
CTCCCGTA	0.118
AGCCGAAA	-0.131
GAACTGAA	-0.00954
GCACTTAC	-0.12
TAAGGACA	0.103
AGTCCGGC	-0.0997
CGTGCCTC	-0.00277
CCACAATC	-0.0961

Sequence	PBM E-score
ATCATATA	0.19
CTCCTATA	-0.124
ACGGACCA	0.147
ACAATGCT	-0.0572
CTGACACC	-0.0573
ACGTCTGA	0.139
CAGGAAGA	-0.051
ACATAGAG	-0.0346
ATCGTGTC	0.235
CAGAGAAA	0.11
AAGTCGGC	-0.173
ACCAGTCG	0.0461
AATTTACG	0.0813
GAGATGCA	0.015
ATGCTGGG	-0.123
AGGCGAAT	-0.0388
GGTACGAA	0.339
GCTCACAC	0.0118
CGCTTGAA	0.168
CAATCCCA	-0.188
ATACATGG	0.0959
AAACAATC	0.176
ATCAGAGG	-0.143
ATTAATGA	0.212
ACGTGAGG	0.00809

Reformatted as comma-separated lines: entries from further up.
Sequence,PBM E-score
ACAATGCT,-0.0572
CTGACACC,-0.0573
GGTACGAA,0.339
CGCTTGAA,0.168
ATCAGAGG,-0.143
ACGTGAGG,0.00809

Continuation:

Sequence	PBM E-score
AAACTTTC	-0.00933
AAGGAGCC	-0.316
AGGGGCGC	-0.187
ACAGGCGT	-0.316
ATCTTTAA	0.21
ACTTATAT	0.229
CGGTGTTC	0.0262
CTTTGATA	0.143
AGGAGGAG	-0.242
CAAAGCAG	-0.0491
AAAGCCCC	-0.254
CCATGCTC	-0.117
CAAAAGAA	0.245
CTCTGTGC	-0.127
CAAGATTA	0.0781
CTTGTCTC	0.0139
GCTTTCGA	-0.208
AGTACACA	0.00416
TCTCGACA	-0.0601
CTGGTTTA	0.0226
CACCTAAC	-0.0284
ATGTCAGG	-0.133
CCCGAGGA	-0.174
ATTGTTTC	0.136
CCACTTCG	-0.155

Sequence	PBM E-score
CAACTGTA	-0.0398
AACAGCTG	-0.0093
AACTGCAC	0.0507
GCTGAAGA	-0.133
AGAGAAAG	-0.0977
CGACGCAG	0.0943
TCCCGTAA	-0.0415
AGATTGTG	0.0417
ATTTGCTC	-0.0177
CAGCTACC	-0.119
ATTGCTCA	0.0967
CAATCCGG	-0.145
TAAAGGTA	-0.131
CACTAAAG	-0.0439
CTTTGATC	-0.0484
ATTACAAC	0.0241
ATACCTCA	-0.00813
CAGCGGAC	-0.105
AAGACAAA	0.127
CAGCCCTG	-0.0768
ACTTCCTC	-0.286
CTGGATTC	-0.0455
